{"source": "PubChem BioAssay AID1224830 (NIAID, 2016)", "screen": "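Genes whose knock-down alters the TNF-alpha reporter response to LPS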 (primary screen)", "cells": "human THP-1 monocytic leukaemia cells, TNF dual-luciferase reporter clone, PMA-differentiated to macrophage-like cells", "reagent": "siRNA pool against human genes, 50 nM", "duration": "LPS for 4 h, given about 3 days after siRNA transfection", "conditions": "bacterial LPS (TLR4 ligand), 10 ng/ml", "read-out": "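TNF firefly reporter luminescence divided by renilla, normalised to the plate median, then turned into a robust z-score for each replicate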", "direction": "TNF reporter robust z-score: higher = stronger TNF reporter response to LPS", "hit rule": "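a well is active when its z-score exceeds 2.8 or falls below -1.5; control wells carry no call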", "note": "This is a random part of about 18,000 reagents. Of all reagents, about 2,900 (16%) got an active call. 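Calls are made per well; low scores hint the gene aids the LPS response, high scores that it dampens it.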 Entries without a mark were called inactive. Repeated entries: four replicate wells of each siRNA pool. No sequences are given here."}
{"gene knocked down": "CCL21", "PubChem SID": "SID315451343", "TNF reporter robust z-score": 0.55}
{"gene knocked down": "CCL21", "PubChem SID": "SID315451343", "TNF reporter robust z-score": 0.8}
{"gene knocked down": "CCL21", "PubChem SID": "SID315451343", "TNF reporter robust z-score": -0.18}
{"gene knocked down": "CCL21", "PubChem SID": "SID315451343", "TNF reporter robust z-score": -0.08}
{"gene knocked down": "FLT3LG", "PubChem SID": "SID315448732", "TNF reporter robust z-score": -0.14}
{"gene knocked down": "FLT3LG", "PubChem SID": "SID315448732", "TNF reporter robust z-score": -0.09}
{"gene knocked down": "FLT3LG", "PubChem SID": "SID315448732", "TNF reporter robust z-score": -0.79}
{"gene knocked down": "FLT3LG", "PubChem SID": "SID315448732", "TNF reporter robust z-score": 0.2}
{"gene knocked down": "EMILIN2", "PubChem SID": "SID315460159", "TNF reporter robust z-score": 0.96}
{"gene knocked down": "EMILIN2", "PubChem SID": "SID315460159", "TNF reporter robust z-score": 1.3}
{"gene knocked down": "EMILIN2", "PubChem SID": "SID315460159", "TNF reporter robust z-score": 2.56}
{"gene knocked down": "EMILIN2", "PubChem SID": "SID315460159", "TNF reporter robust z-score": -0.93}
{"gene knocked down": "DDA1", "PubChem SID": "SID315459157", "TNF reporter robust z-score": -0.25}
{"gene knocked down": "DDA1", "PubChem SID": "SID315459157", "TNF reporter robust z-score": -0.87}
{"gene knocked down": "DDA1", "PubChem SID": "SID315459157", "TNF reporter robust z-score": -0.62}
{"gene knocked down": "DDA1", "PubChem SID": "SID315459157", "TNF reporter robust z-score": -0.23}
{"gene knocked down": "RINL", "PubChem SID": "SID315461714", "TNF reporter robust z-score": -0.48}
{"gene knocked down": "RINL", "PubChem SID": "SID315461714", "TNF reporter robust z-score": -1.03}
{"gene knocked down": "RINL", "PubChem SID": "SID315461714", "TNF reporter robust z-score": -0.8}
{"gene knocked down": "RINL", "PubChem SID": "SID315461714", "TNF reporter robust z-score": -0.12}

An excerpt of the results above:
{"gene knocked down": "FLT3LG", "PubChem SID": "SID315448732", "TNF reporter robust z-score": 0.2}
{"gene knocked down": "EMILIN2", "PubChem SID": "SID315460159", "TNF reporter robust z-score": 0.96}
